We go through 1 compound from ChEMBL document CHEMBL5154776, “Discovery of Potent and Orally Bioavailable Platelet-Derived Growth Factor Receptor (PDGFR) Inhibitors for the Treatment of Osteosarcoma” (J Med Chem, 2022).

As usually defined, the IC50 is the concentration that gives 50% inhibition.

Structures are written as SMILES.

In test [1] the test system is MG-63. Kind of test: Antiproliferative activity against human MG-63 cells assessed as reduction in cell viability incubated for 48 hrs by MTT assay. To be noted: MG-63, 48 h. In general terms: Tetrazolium assays rely on reduction of a dye to a coloured formazan, in cell work by metabolically active cells.
For test [2], the system named is SAOS-2. As to the kind of experiment: Antiproliferative activity against human SAOS-2 cells assessed as reduction in cell viability incubated for 48 hrs by MTT assay. The settings on record: SAOS-2, 48 h.
Test [3] relates to U2OS. As to the kind of experiment: Antiproliferative activity against human U2OS cells assessed as reduction in cell viability incubated for 48 hrs by MTT assay.

Consider `Cc1ccc(NC(=O)c2ccc(CN3CCN(C)CC3)cc2)cc1Nc1nccc(-c2cccnc2)n1` [IMATINIB], for which the concentration for half-maximal inhibition (IC50) in test [1] came to 31.7 µM; in test [2], 15 µM; in test [3], 27.2 µM.
